No constants are given. Whether binding was seen depends on the method and setting. Binding seen in cells or lysates may run through a third protein. Some entries that bind do so weakly or less than the wild type.
Molecular target: Baculoviral IAP repeat containing 2 (c-IAP1) (human (endogenous in GBC-SD)) (UniProt Q13490)
Experiment: co-IP; GBC-SD cell lysate in RIPA buffer; 1 ug antibody overnight, protein A agarose beads 1 h at 4 C, washed three times with RIPA; Western blot; IgG as negative control

Amino acid sequences for entries named in this document (tags omitted). A change or cut given only in a name is not applied to a line headed by its entry. Residues count along the entry.
UniProt Q13490: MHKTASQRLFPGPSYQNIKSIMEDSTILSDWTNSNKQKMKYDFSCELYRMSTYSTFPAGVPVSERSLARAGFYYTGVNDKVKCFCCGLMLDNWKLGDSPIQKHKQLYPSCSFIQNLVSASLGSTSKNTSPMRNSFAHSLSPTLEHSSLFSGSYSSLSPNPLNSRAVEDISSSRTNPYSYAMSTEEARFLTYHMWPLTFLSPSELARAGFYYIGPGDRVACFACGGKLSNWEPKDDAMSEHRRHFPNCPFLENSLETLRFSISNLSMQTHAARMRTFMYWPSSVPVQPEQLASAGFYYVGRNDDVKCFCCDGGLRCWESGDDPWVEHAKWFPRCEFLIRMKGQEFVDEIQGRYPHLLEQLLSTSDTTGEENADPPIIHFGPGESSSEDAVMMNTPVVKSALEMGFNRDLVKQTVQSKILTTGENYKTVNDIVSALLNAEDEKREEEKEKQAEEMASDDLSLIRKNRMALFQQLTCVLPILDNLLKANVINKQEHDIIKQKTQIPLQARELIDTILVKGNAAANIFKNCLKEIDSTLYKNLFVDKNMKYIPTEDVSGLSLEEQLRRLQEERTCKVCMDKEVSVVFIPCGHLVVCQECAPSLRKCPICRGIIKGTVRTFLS
UniProt Q9UGM3, residues 20-2413: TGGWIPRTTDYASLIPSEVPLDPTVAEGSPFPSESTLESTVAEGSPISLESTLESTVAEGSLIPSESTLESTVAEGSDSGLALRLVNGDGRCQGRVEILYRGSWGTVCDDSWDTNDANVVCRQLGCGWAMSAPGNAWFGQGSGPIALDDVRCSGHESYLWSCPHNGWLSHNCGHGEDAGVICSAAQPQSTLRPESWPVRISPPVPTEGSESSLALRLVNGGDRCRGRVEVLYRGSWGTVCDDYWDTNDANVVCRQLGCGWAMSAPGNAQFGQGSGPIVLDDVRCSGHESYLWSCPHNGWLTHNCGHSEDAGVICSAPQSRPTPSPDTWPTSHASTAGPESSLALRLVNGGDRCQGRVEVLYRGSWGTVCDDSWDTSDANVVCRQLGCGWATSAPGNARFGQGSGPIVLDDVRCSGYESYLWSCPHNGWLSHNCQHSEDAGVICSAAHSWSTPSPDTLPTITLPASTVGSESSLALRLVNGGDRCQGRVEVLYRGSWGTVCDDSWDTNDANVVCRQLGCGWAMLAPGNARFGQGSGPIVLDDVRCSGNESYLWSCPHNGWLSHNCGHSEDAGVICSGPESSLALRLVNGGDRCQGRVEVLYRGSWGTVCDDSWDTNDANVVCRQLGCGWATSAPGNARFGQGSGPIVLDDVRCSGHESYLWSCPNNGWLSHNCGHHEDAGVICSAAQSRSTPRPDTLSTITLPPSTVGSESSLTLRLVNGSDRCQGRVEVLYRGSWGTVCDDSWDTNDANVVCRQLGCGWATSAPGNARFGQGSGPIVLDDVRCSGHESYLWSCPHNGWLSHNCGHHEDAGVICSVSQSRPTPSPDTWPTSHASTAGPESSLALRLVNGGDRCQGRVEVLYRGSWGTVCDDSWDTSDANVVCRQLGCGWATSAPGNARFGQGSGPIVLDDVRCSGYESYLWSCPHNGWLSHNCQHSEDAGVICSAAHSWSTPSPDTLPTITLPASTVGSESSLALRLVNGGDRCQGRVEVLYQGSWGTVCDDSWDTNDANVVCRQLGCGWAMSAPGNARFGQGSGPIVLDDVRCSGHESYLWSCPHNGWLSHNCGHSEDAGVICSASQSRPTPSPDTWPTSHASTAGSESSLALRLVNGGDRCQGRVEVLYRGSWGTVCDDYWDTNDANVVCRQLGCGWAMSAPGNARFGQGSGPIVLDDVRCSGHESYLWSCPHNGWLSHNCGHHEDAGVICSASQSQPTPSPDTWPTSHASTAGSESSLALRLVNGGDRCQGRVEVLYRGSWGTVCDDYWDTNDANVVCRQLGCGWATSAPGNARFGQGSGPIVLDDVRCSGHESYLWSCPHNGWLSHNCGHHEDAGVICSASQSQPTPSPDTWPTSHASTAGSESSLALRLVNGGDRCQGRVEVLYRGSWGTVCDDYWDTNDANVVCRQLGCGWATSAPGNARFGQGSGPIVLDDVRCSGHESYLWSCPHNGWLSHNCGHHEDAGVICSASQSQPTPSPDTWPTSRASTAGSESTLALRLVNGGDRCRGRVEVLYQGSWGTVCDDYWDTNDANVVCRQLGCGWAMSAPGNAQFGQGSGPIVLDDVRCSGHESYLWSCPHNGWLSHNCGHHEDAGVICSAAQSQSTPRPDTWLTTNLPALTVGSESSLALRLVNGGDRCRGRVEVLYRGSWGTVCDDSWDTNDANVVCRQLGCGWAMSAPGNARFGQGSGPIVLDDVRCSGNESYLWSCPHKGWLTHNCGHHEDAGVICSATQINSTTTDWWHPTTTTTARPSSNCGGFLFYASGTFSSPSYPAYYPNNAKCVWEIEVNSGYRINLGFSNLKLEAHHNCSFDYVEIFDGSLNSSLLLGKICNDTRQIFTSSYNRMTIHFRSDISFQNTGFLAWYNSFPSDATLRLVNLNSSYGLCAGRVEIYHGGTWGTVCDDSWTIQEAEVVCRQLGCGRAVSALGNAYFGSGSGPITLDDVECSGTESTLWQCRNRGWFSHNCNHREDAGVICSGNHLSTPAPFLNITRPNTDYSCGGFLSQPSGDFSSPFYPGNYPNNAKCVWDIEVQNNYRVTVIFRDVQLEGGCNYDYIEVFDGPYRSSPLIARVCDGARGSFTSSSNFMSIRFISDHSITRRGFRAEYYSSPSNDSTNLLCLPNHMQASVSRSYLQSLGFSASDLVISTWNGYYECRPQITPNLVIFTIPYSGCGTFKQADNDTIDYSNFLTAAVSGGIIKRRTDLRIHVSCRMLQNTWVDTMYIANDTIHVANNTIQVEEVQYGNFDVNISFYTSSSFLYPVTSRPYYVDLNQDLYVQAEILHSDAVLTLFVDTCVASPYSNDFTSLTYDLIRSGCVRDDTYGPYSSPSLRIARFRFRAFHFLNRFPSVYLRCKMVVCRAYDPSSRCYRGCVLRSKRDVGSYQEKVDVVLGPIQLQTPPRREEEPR

binding: binds
Substance: Deleted in malignant brain tumors 1 (DMBT1) (from UniProt Q9UGM3 20-2413)

— article PMC5341947
